According to US20080118512A1 (DELENEX THERAPEUTICS, published 2008):
No constants are given. Whether binding was seen depends on the method and setting. Some entries that bind do so weakly or less than the wild type.

Biological target: T1, human ALK epitope peptide (amino acids 391-406 of the ALK protein) (human)
T1 sequence (peptide): GRIGRPDNPFRVALEY
Assay: ELISA; the coated antigen is not named on the sheet or in the legend, taken as the ALK epitope peptide

B1: scFv 28.11 (scFv)
scFv: QSVLTQPPSVSAAPGQKVTISCSGSTSNIGDNYVSWYQQLPGTAPQLLIYDNTKRPSGIPDRFSGSKSGTSATLGITGLQTGDEADYYCATWDNDKWGVVFGGGTKLEVLGGGGGSGGGGSGGGGSSGGGSEVQLVESGGGLVQPGGSLRLSCAASGFTFSSYAMSWVRQAPGKGLEWVSAIETSSGSTYYADSVKGRFTISRDNSKNTLYLQMNSLRAEDTAVYYCARDAWLDVLSDGFDYWGQGTLVTVSS
- binding: binds
